Values quoted from earlier work in patent US11993576B2, “N-benzyl-N-arylsulfonamide derivative and preparation and use thereof” (Hangzhou Yirui Pharmaceutical Technology Co., Ltd, priority 2019, dated 2024).
Some entries share one result that the patent states for a list of compounds.

System: psoriasis
Settings: Phase I/II clinical trials, humans; cited from earlier work

Substance: SHK-186
- rate of improvement of psoriasis symptoms: more than 90%
